These results are taken from publication PMC10329633, “Molecular basis and design principles of switchable front-rear polarity and directional migration in Myxococcus xanthus” (Nature Communications, 2023).

Results are given in words; binding and its absence hold for the method and conditions named. For part of these data: Binding can be weak; no strength is given. Tags and fused reporters may be left off the sequences shown.

Experiment [1] concerns the target T1, His6-MglB (Myxococcus xanthus) (UniProt Q1DB03).
T1 sequence: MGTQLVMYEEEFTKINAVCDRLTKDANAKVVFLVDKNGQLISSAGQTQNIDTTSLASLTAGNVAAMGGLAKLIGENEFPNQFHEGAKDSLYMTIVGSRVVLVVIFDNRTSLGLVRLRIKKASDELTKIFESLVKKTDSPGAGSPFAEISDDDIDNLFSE
Kind of experiment: pull-down; His6-MglB or His6-MglB^KRK as bait on nickel magnetic beads, pairwise; proteins 10 µM each, buffer 1, washes with 50 mM imidazole, RT; both purified.

Experiment [2] has as its target T1, His6-MglB (Myxococcus xanthus). Description: pull-down; His6-MglB as bait on nickel magnetic beads, all three proteins (His6-MglB, Strep-MglC, MalE-RomR) present; 10 µM each, buffer 1, washes with 50 mM imidazole, RT; both purified.
Experiment [3] has as its target Strep-MglC (Myxococcus xanthus). Kind of experiment: pull-down; Strep-MglC as bait on Strep-Tactin beads; 40 µM GppNHp in all buffers; without or with MglA-His6 preincubated with GppNHp; proteins 10 µM; MglB detected by immunoblot with α-MglB; both purified. In general terms: Immunoblotting shows a protein as a band on a membrane.
Experiment [4] has the same target. Description: pull-down; Strep-MglC as bait on Strep-Tactin MagStrep type3 XT beads, pairwise; proteins 10 µM each, buffer 1 (50 mM Tris-HCl pH 7.5, 150 mM NaCl, 1 mM DTT, 5 mM MgCl2, 5% glycerol), RT; MglA-His6 preloaded with GTP and 40 µM GTP in all buffers; Coomassie-stained SDS-PAGE; both purified.
For experiment [5] the target is unchanged. Kind of experiment: pull-down; Strep-MglC as bait on Strep-Tactin beads; 40 µM GDP in all buffers; without or with MglA-His6 preincubated with GDP; proteins 10 µM; MglB detected by immunoblot with α-MglB; both purified.
Experiment [6] has the same target. Kind of experiment: condition: only with MglA-His6 loaded with GppNHp (10 µM); pull-down; Strep-MglC as bait on Strep-Tactin beads; 40 µM GppNHp in all buffers; without or with MglA-His6 preincubated with GppNHp; proteins 10 µM; MglB detected by immunoblot with α-MglB; both purified.

As for Strep-MglC (Myxococcus xanthus), the binding entry in experiment [1] and in experiment [2] was “binds” each time.

B1: MglA-His6 (protein, UniProt Q1DB04 1-195)
chain: MSFINYSSREINCKIVYYGPGLCGKTTNLQYIYNKTAAETKGKLISLSTETDRTLFFDFLPLSLGEIRGFKTRFHLYTVPGQVFYDASRKLILKGVDGVVFVADSQIERMEANMESLENLRINLAEQGYDLNKIPYVIQYNKRDLPNAVTVEEMRKALNHRNIPEYQAVAPTGVGVFDTLKAVAKLVLTELKKGG
For B1, the binding result in experiment [3], in experiment [4] and in experiment [5] was “no binding (tested: 10 µM)” in each case.

B2: His6-MglB (natural protein, Myxococcus xanthus)
chain: T1 sequence
notes: also called MglB-His6; MglB^WT; source: E. coli Rosetta 2(DE3), purified (Ni-NTA, Superdex 75 gel filtration); not shown: His6, N-terminal, kept
In the case of B2, the binding result is “binds” in experiment [3], “no binding” in experiment [6], “binds” in experiment [4] and “binds” in experiment [5].
